Test results from the supplement of paper PMC6411743.
± gives the standard deviation of the averaged measurements. The entries are a selection whose mix differs from that of the whole data set. Most values lie at the level of the controls, where differences are scatter.

Chains of the proteins cited; added tags and fusions are not shown. Lines headed by an entry give the natural chain unless they say otherwise; changes in a name come on top.
UniProt O96007: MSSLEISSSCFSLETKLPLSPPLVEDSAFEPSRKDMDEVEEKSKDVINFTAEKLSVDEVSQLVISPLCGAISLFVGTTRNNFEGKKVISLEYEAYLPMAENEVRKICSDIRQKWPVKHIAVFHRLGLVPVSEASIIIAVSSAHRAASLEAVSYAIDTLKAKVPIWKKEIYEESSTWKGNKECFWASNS
UniProt P07311: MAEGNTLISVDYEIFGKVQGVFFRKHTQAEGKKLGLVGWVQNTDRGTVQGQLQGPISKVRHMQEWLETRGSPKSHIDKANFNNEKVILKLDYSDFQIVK
UniProt P14151: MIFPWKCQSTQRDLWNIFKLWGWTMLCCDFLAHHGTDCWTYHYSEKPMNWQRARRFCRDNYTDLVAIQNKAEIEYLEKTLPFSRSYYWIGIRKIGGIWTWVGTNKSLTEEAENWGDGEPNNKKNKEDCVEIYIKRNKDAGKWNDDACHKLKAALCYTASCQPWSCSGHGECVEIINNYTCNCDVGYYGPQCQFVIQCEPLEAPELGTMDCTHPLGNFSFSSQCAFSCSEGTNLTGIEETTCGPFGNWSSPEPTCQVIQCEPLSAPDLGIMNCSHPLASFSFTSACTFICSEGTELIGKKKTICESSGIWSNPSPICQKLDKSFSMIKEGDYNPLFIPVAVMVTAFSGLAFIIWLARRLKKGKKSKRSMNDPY
UniProt P02545: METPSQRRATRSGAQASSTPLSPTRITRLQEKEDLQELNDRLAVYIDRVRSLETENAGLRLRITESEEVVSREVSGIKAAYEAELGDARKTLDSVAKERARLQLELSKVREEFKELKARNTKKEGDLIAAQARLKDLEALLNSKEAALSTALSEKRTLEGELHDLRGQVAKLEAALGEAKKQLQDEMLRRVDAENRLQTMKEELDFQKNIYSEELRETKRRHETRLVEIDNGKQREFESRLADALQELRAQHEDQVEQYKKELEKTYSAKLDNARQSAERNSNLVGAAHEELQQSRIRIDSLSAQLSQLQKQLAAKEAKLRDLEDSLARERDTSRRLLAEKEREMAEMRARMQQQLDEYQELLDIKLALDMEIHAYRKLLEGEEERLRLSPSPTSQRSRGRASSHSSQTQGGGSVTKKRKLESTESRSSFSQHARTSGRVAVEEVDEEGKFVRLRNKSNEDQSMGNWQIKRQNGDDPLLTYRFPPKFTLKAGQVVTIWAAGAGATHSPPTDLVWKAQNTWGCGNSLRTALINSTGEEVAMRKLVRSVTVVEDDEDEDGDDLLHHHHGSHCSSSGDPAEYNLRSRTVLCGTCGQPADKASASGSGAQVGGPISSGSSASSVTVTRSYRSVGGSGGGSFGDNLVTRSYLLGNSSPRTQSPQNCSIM
UniProt Q71UI9, whole entry, looked up: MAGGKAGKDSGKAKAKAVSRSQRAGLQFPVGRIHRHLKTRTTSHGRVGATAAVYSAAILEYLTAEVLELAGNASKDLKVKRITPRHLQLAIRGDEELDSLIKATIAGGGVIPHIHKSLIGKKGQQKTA
UniProt P10809, whole entry: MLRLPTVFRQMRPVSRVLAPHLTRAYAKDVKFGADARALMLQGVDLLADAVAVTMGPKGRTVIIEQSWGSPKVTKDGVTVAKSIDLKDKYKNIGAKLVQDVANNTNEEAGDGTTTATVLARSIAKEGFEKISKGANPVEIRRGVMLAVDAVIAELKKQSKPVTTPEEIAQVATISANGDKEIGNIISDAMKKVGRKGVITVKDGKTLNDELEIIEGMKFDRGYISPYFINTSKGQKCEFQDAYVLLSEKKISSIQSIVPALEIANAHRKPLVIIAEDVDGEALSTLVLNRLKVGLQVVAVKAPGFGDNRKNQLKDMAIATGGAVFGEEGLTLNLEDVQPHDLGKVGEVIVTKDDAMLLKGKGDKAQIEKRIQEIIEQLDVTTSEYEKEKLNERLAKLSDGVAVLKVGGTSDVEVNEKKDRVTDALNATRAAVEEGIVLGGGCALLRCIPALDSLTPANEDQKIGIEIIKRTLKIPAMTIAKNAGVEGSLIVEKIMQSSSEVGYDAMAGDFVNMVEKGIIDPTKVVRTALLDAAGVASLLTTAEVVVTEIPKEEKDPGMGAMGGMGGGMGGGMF
UniProt O95835: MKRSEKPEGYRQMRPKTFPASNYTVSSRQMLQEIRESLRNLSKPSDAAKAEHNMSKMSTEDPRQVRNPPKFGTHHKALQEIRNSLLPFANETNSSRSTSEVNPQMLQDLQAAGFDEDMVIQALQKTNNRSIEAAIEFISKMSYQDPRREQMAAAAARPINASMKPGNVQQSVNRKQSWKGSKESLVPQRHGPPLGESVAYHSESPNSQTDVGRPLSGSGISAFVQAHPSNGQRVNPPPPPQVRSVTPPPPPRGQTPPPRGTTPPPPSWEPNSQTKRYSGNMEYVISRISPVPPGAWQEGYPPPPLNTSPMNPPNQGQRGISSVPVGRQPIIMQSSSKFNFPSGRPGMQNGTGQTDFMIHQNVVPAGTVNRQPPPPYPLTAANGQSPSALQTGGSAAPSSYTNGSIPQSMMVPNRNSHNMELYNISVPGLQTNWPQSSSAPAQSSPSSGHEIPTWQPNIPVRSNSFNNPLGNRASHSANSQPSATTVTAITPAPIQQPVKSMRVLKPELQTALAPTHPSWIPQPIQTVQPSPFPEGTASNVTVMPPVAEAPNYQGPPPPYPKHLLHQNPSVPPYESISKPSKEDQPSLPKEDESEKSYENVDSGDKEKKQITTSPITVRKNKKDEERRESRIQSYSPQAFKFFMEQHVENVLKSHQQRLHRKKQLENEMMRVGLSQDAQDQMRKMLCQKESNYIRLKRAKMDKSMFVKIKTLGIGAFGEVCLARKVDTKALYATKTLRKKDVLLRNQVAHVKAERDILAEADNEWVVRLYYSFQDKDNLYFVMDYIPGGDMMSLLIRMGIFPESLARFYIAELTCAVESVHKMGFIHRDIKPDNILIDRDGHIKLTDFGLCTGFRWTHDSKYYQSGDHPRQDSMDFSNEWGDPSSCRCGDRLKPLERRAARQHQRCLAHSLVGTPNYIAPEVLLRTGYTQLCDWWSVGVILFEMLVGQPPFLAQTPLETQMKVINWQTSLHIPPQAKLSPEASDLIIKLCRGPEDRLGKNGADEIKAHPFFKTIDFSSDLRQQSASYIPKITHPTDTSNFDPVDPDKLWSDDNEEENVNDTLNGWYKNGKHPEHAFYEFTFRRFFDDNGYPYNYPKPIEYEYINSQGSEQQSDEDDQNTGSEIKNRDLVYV
UniProt P07437, whole entry: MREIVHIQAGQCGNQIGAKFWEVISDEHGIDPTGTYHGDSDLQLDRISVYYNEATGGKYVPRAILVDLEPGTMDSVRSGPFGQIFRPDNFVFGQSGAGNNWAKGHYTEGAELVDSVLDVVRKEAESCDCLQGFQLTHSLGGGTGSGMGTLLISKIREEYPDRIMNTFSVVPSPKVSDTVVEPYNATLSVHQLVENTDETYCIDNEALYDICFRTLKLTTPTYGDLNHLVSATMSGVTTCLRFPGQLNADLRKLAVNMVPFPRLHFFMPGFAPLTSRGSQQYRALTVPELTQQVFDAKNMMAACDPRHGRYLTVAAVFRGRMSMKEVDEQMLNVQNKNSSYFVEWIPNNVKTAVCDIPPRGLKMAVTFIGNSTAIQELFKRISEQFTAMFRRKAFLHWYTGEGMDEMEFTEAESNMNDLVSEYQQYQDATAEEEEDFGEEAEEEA
UniProt P04181: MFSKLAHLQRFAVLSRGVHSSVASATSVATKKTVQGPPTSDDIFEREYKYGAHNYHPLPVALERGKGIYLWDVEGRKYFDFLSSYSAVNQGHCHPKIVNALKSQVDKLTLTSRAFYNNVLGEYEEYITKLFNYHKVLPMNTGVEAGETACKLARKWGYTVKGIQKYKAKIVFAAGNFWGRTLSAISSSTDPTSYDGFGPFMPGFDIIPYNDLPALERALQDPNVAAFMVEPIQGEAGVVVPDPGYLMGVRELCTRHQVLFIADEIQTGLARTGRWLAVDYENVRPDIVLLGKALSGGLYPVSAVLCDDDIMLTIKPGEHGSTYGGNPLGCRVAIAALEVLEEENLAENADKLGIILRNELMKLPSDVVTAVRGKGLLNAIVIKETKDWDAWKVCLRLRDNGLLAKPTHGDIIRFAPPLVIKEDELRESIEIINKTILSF
UniProt P00813: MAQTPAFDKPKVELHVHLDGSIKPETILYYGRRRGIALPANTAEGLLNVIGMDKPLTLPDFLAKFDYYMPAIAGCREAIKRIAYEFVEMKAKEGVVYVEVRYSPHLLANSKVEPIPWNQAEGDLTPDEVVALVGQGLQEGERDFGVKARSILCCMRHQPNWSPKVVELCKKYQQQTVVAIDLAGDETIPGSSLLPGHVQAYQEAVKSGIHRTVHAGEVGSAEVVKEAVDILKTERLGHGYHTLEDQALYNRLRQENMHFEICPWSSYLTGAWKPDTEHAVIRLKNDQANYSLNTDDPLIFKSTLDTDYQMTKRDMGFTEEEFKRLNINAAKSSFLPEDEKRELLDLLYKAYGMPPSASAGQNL
UniProt P07384: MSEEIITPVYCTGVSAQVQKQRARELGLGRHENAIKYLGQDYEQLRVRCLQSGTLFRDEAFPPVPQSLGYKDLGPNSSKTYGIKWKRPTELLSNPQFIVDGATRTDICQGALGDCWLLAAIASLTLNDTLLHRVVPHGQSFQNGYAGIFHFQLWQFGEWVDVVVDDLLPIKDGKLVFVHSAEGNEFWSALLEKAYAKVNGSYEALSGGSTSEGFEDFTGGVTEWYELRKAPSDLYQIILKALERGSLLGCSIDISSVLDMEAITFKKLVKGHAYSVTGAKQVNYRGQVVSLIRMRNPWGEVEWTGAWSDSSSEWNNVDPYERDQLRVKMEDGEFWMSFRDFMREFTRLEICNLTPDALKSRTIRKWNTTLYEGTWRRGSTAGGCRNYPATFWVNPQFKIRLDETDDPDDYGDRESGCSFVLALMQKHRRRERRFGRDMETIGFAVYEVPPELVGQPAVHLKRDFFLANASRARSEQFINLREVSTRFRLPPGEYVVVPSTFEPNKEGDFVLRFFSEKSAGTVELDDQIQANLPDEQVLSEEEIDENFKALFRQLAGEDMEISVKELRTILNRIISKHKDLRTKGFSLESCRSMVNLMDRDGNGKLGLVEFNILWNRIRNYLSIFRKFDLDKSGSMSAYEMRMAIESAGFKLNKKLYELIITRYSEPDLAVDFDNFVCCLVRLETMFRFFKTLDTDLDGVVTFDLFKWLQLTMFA
UniProt P06400: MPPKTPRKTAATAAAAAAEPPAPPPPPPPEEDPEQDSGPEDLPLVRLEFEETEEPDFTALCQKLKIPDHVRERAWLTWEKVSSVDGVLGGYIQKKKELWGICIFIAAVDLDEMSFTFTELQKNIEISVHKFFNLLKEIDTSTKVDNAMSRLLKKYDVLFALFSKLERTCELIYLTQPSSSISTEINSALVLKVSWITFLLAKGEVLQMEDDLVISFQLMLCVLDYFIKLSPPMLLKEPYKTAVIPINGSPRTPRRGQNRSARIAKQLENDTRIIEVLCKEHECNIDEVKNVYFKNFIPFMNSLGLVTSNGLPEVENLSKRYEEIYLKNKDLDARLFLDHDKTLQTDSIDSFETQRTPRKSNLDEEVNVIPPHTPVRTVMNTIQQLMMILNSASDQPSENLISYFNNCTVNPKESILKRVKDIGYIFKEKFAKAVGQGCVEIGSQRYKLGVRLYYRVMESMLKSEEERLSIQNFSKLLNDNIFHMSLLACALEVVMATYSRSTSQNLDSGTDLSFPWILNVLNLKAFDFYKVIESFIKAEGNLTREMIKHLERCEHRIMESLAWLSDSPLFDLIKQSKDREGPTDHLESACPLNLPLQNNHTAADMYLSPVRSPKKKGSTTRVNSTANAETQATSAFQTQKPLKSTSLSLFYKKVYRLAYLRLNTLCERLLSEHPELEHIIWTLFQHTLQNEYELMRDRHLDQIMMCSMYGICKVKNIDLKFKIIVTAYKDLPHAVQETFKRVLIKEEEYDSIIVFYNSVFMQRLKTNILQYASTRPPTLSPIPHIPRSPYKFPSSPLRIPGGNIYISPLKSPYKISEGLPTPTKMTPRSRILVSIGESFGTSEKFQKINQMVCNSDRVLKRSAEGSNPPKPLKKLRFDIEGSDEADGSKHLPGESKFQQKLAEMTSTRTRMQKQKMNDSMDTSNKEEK
UniProt P00367: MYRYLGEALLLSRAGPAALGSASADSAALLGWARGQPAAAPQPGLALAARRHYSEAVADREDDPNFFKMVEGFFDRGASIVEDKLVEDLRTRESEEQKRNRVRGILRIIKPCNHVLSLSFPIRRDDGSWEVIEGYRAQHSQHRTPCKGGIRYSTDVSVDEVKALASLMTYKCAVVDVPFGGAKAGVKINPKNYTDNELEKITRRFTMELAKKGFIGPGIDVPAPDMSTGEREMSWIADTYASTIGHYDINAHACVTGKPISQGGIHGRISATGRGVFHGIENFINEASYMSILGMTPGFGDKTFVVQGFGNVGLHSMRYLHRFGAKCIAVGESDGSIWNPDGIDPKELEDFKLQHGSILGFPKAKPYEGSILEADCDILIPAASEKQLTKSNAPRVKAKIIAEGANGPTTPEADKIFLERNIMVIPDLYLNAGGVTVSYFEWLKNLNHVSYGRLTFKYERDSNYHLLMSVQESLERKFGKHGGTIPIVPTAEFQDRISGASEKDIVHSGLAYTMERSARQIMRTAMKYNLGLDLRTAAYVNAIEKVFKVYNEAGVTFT

Compound: Nc1ncnc2c1ncn2[C@@H]1O[C@H](COP(=O)(O)OP(=O)(O)OP(=O)(O)O)[C@@H](O)[C@H]1O [adenosine triphosphate]
Assay: NP40-soluble protein abundance relative to vehicle (solubility fold change) (ratio); higher = more soluble protein in presence of ATP
Summary of the method: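 In three independent experiments, Jurkat crude lysate made by Dounce homogenisation was treated for 10 min at room temperature and then 3 min at 37 °C with eight concentrations ranging from 0.1 to 10 mM. It was then solubilised with 0.8% NP40 plus benzonase for 60 min at 4 °C and ultracentrifuged. The supernatant was TMT-labelled for LC-MS/MS, and each value is the fold change against the detergent-processed vehicle for the same replicate, using vsn-normalised intensities.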

Target	NP40-soluble protein abundance (concentration: 0.1mM)	NP40-soluble protein abundance (concentration: 0.5mM)
HIST1H1D (UniProt P16402)	0.919 ± 0.071	1.03 ± 0.13
UniProt O96011 and related entries	0.935 ± 0.06	0.929 ± 0.1
UniProt P06756 and related entries	0.987 ± 0.053	0.969 ± 0.091
SLC25A5 (UniProt P05141)	0.947 ± 0.021	0.97 ± 0.025
UniProt P05023 and related entries	1.02 ± 0.036	1.04 ± 0.064
UniProt P11802 and related entries	1 ± 0.12	1.03 ± 0.027
O96007 and related entries (UniProt O96033+O96007)	0.978 ± 0.034	0.999 ± 0.019
HIST1H1B (UniProt P16401)	0.979 ± 0.096	1.02 ± 0.1
CLPTM1 (UniProt O96005)	0.9661 ± 0.0059	0.999 ± 0.041
UniProt P04234	0.944 ± 0.068	0.895 ± 0.082
ANXA5 (UniProt P08758)	0.948 ± 0.038	0.927 ± 0.029
MTHFD1 (UniProt P11586)	1.04 ± 0.053	1.05 ± 0.062
UniProt P05026 and related entries	0.963 ± 0.028	0.946 ± 0.18
VIM (UniProt P08670)	0.972 ± 0.035	0.987 ± 0.033
HMGB1 (UniProt P09429)	0.902 ± 0.12	0.875 ± 0.15
LDHB (UniProt P07195)	0.893 ± 0.2	1.1 ± 0.085
COX6B1 (UniProt P14854)	0.88 ± 0.14	0.806 ± 0.16
UniProt P14324-2	0.966 ± 0.044	0.992 ± 0.036
COX4I1 (UniProt P13073)	0.944 ± 0.033	0.921 ± 0.063
UniProt P08240	1.05 ± 0.067	1.04 ± 0.048
UniProt P11171-2|P11171 and related entries	1.02 ± 0.037	1.02 ± 0.055
UniProt P04921 and related entries	0.755 ± 0.026	0.651 ± 0.13
ISG15 (UniProt P05161)	1.02 ± 0.048	1.01 ± 0.051
LCP1 (UniProt P13796)	1.05 ± 0.084	0.851 ± 0.1

An excerpt of these results, as comma-separated lines.
Target,NP40-soluble protein abundance (concentration: 0.1mM),NP40-soluble protein abundance (concentration: 0.5mM)
SLC25A5 (UniProt P05141),0.947 ± 0.021,0.97 ± 0.025
O96007 and related entries (UniProt O96033+O96007),0.978 ± 0.034,0.999 ± 0.019
UniProt P04234,0.944 ± 0.068,0.895 ± 0.082
COX6B1 (UniProt P14854),0.88 ± 0.14,0.806 ± 0.16
UniProt P08240,1.05 ± 0.067,1.04 ± 0.048

(further entries)

Target	NP40-soluble protein abundance (concentration: 0.1mM)	NP40-soluble protein abundance (concentration: 0.5mM)
HARS (UniProt P12081)	1.01 ± 0.039	1.01 ± 0.054
PAK4 (UniProt O96013)	1.02 ± 0.024	1.06 ± 0.07
ANXA3 (UniProt P12429)	1.02 ± 0.017	0.983 ± 0.016
TYMS (UniProt P04818)	1.03 ± 0.056	1 ± 0.053
ACYP1 (UniProt P07311)	0.955 ± 0.029	0.929 ± 0.053
ATXN1L (UniProt P0C7T5)	0.954 ± 0.064	0.981 ± 0.042
UniProt P16383	0.972 ± 0.064	0.974 ± 0.082
UniProt P06127	0.998 ± 0.018	0.982 ± 0.019
ACTL6A (UniProt O96019)	1.04 ± 0.064	1.09 ± 0.062
UniProt P14151 and related entries	0.948 ± 0.028	0.965 ± 0.065
UniProt P02545 and related entries	1.02 ± 0.076	1.05 ± 0.087
UQCRB (UniProt P14927)	0.94 ± 0.058	0.93 ± 0.062
RRAS (UniProt P10301)	1.73 ± 0.62	1.01 ± 0.035
NUDT3 (UniProt O95989)	1.02 ± 0.082	1.04 ± 0.055
ADH5 (UniProt P11766)	0.96 ± 0.049	1.01 ± 0.037
QDPR (UniProt P09417)	1.03 ± 0.046	1 ± 0.033
P0C0S5 and related entries (UniProt Q71UI9+P0C0S5)	0.924 ± 0.14	0.977 ± 0.26
CTSG (UniProt P08311)	0.929 ± 0.086	0.924 ± 0.11
CAT (UniProt P04040)	1.02 ± 0.046	1.02 ± 0.057
UniProt P13807 and related entries	1.02 ± 0.22	0.974 ± 0.17
ESD (UniProt P10768)	0.998 ± 0.091	1.02 ± 0.071
UniProt P00338-3|P00338-2	1.06 ± 0.35	0.92 ± 0.17
HMBS (UniProt P08397)	1.01 ± 0.051	1.03 ± 0.065
PYGB (UniProt P11216)	0.88 ± 0.07	0.798 ± 0.068

Target	NP40-soluble protein abundance (concentration: 0.1mM)	NP40-soluble protein abundance (concentration: 0.5mM)
ACAA1 (UniProt P09110)	0.99467 ± 0.00042	1.01 ± 0.047
UniProt P14618 and related entries	1.03 ± 0.061	1.02 ± 0.059
PCNA (UniProt P12004)	1.02 ± 0.026	1.02 ± 0.058
PARP1 (UniProt P09874)	1.04 ± 0.072	1.1 ± 0.057
SYF2 (UniProt O95926)	0.712 ± 0.084	0.671 ± 0.071
UniProt P10636-6|P10636-7	0.907 ± 0.06	0.893 ± 0.073
UniProt P05165 and related entries	1.03 ± 0.033	0.997 ± 0.04
RNH1 (UniProt P13489)	1.05 ± 0.085	1.01 ± 0.079
UBL4A (UniProt P11441)	0.924 ± 0.1	0.851 ± 0.083
UniProt O95980	1.03 ± 0.11	0.97 ± 0.12
P0C0S8 and related entries (UniProt Q99878+Q96KK5+Q93077+Q6FI13+P0C0S8)	0.783 ± 0.28	0.607 ± 0.27
HSPD1 (UniProt P10809)	0.971 ± 0.089	1.01 ± 0.062
SNRPA1 (UniProt P09661)	0.92 ± 0.071	0.899 ± 0.063
TXN (UniProt P10599)	0.992 ± 0.044	0.983 ± 0.036
ZBTB48 (UniProt P10074)	1.01 ± 0.048	1.02 ± 0.042
LATS1 (UniProt O95835)	1.08 ± 0.071	1.11 ± 0.045
UniProt P07437	0.964 ± 0.049	1.03 ± 0.045
OAT (UniProt P04181)	1.02 ± 0.027	1.02 ± 0.028
UniProt P05106	0.989 ± 0.079	0.945 ± 0.019
DLD (UniProt P09622)	1.02 ± 0.023	1.07 ± 0.052
ENO2 (UniProt P09104)	1.05 ± 0.074	1.04 ± 0.094
SP1 (UniProt P08047)	0.95 ± 0.068	0.956 ± 0.021
UniProt P06239 and related entries	1.05 ± 0.043	1.06 ± 0.016
GNAI3 (UniProt P08754)	0.978 ± 0.049	0.887 ± 0.041

Some of the entries above, set out differently:
Target,NP40-soluble protein abundance (concentration: 0.1mM),NP40-soluble protein abundance (concentration: 0.5mM)
UniProt P14618 and related entries,1.03 ± 0.061,1.02 ± 0.059
UniProt P05106,0.989 ± 0.079,0.945 ± 0.019

Carrying on.

Target	NP40-soluble protein abundance (concentration: 0.1mM)	NP40-soluble protein abundance (concentration: 0.5mM)
HIST1H1E (UniProt P10412)	1.03 ± 0.14	1.01 ± 0.17
UniProt P00491	1 ± 0.075	0.986 ± 0.018
UniProt P13051 and related entries	1.04 ± 0.13	1.04 ± 0.093
ADA (UniProt P00813)	1.06 ± 0.15	0.881 ± 0.17
CAPN1 (UniProt P07384)	1.07 ± 0.11	1.05 ± 0.08
DBT (UniProt P11182)	0.954 ± 0.095	1.04 ± 0.11
ETFA (UniProt P13804)	0.985 ± 0.023	1 ± 0.052
MIF (UniProt P14174)	0.991 ± 0.053	0.918 ± 0.074
UniProt P06241 and related entries	1.04 ± 0.013	1.14 ± 0.079
RPLP0 (UniProt P05388)	0.92 ± 0.038	0.911 ± 0.074
APRT (UniProt P07741)	0.881 ± 0.026	0.843 ± 0.13
CREB1 (UniProt P16220)	0.983 ± 0.033	0.9638 ± 0.0083
SLC25A4 (UniProt P12235)	0.955 ± 0.059	0.9532 ± 0.0058
RPA2 (UniProt P15927)	0.987 ± 0.023	0.983 ± 0.019
ITGA5 (UniProt P08648)	0.957 ± 0.034	0.893 ± 0.064
IGLL1 (UniProt P15814)	0.969 ± 0.03	0.936 ± 0.047
IFNGR1 (UniProt P15260)	0.94 ± 0.035	0.945 ± 0.026
UniProt P04083 and related entries	0.924 ± 0.048	0.903 ± 0.057
XRCC6 (UniProt P12956)	0.892 ± 0.18	1.09 ± 0.22
UniProt P12544 and related entries	1.09 ± 0.1	1.08 ± 0.22
TK1 (UniProt P04183)	1.04 ± 0.022	1.07 ± 0.059
ALAD (UniProt P13716)	1 ± 0.033	1.03 ± 0.031
MGMT (UniProt P16455)	0.941 ± 0.045	0.897 ± 0.12
PGK1 (UniProt P00558)	1 ± 0.03	0.994 ± 0.031

Target	NP40-soluble protein abundance (concentration: 0.1mM)	NP40-soluble protein abundance (concentration: 0.5mM)
SSB (UniProt P05455)	0.9 ± 0.088	0.99 ± 0.062
UniProt O95834-2|O95834-3|O95834	1.05 ± 0.12	1.06 ± 0.073
H2AFX (UniProt P16104)	0.845 ± 0.15	0.82 ± 0.22
UniProt P00390 and related entries	1.05 ± 0.062	1.06 ± 0.064
RB1 (UniProt P06400)	0.997 ± 0.038	1.01 ± 0.034
UniProt P11498 and related entries	1.07 ± 0.048	1.04 ± 0.031
FDX1 (UniProt P10109)	0.936 ± 0.05	0.927 ± 0.022
HIST1H1C (UniProt P16403)	1.02 ± 0.094	1.01 ± 0.063
GLUD1 (UniProt P00367)	0.945 ± 0.092	0.976 ± 0.07
UniProt P10619 and related entries	0.914 ± 0.035	0.905 ± 0.1
UniProt P11940 and related entries	0.996 ± 0.1	1.05 ± 0.084
UniProt P12814 and related entries	1.03 ± 0.026	1.03 ± 0.066
UniProt P09132 and related entries	0.943 ± 0.023	0.968 ± 0.018
ITGA4 (UniProt P13612)	0.959 ± 0.016	0.944 ± 0.046
BAG2 (UniProt O95816)	1 ± 0.11	0.939 ± 0.1
SLC2A1 (UniProt P11166)	0.957 ± 0.054	1 ± 0.022
UniProt P02792 and related entries	0.899 ± 0.17	0.89 ± 0.14
UniProt P15529-2|P15529-3|P15529-4|P15529-5|P15529-6|P15529-7|P15529-16	0.983 ± 0.036	0.957 ± 0.041
UniProt P06729	0.921 ± 0.011	0.943 ± 0.019
TPR (UniProt P12270)	0.992 ± 0.023	1 ± 0.063
EPHX1 (UniProt P07099)	1.08 ± 0.11	1.07 ± 0.1
UniProt P16298 and related entries	1 ± 0.033	1.01 ± 0.02
GTF2F2 (UniProt P13984)	0.998 ± 0.025	1.04 ± 0.05
ZBED1 (UniProt O96006)	1 ± 0.018	0.992 ± 0.033
